Data reported in PMC10829383.
The exact form of at least one protein or probe is not confirmed. Where cells or extracts were used, other partners may take part.

Protein sequences, listed by entry. Tags and fused reporters are not part of them.
UniProt P03372, whole entry: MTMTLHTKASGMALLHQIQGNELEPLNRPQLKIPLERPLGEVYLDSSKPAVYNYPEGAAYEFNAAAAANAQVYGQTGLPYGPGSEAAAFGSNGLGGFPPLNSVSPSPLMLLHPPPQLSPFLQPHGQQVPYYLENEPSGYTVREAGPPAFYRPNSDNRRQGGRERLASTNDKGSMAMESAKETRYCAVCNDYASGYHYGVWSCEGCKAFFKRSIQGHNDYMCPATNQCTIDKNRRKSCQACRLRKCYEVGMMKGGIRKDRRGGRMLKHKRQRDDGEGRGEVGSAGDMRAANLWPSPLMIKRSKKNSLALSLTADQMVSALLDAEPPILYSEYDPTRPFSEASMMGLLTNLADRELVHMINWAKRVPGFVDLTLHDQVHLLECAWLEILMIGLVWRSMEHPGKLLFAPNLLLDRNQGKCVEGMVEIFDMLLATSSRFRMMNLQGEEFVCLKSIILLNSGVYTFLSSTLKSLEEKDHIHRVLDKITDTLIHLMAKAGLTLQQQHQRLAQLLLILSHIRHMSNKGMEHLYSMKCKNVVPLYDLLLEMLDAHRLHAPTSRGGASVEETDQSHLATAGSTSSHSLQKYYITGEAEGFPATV

Target: ERα (UniProt P03372)
Experiment: EMSA supershift
Details: anti-ERα antibody, nuclear extract; EMSA supershift: 4 µg nuclear extract and 1 µg anti-ERα preincubated in binding buffer 20 min at ambient temperature; buffer composition, salt and pH not given; protein in an extract; label: biotin

**Q.** Does “GACCGGGCCCAGTGACCCGCGGGC (double strand) [lncRNA NCALD promoter ERα site probe]” bind?
**A.** Result: binds
